Assay results reported in patent US9487752B2, “Priming of pluripotent stem cells for neural differentiation” (Cellular Dynamics International, Inc., priority 2011, dated 2016).
At least one structure is not confirmed: it was looked up by name or label, or the drawing left a doubt.

Test system: iPSC line (2.042)
Experiment: Neural differentiation of iPSC line 2.042, neuron purity by βIII-tubulin/Nestin double stains
Type: cell-based
Conditions: only one of 10 μM SB-431542 or 1 μM dorsomorphin in medium on Days −2, −1, 0 and 1; Day 28 (FIG. 3C)

## c1cc(-c2cnn3cc(-c4ccc(OCCN5CCCCC5)cc4)cnc23)ccn1 [dorsomorphin]
  neuron purity by βIII-tubulin/Nestin double stains compared to both inhibitors: similarly high neuron purities
